Data on one substance can be found in article PMC5581032.

By UniProt entry, the sequences of proteins in these tests, tags left out. Where a name states a change or a piece, a line headed by the entry shows the natural chain unless it says otherwise.
UniProt P03230: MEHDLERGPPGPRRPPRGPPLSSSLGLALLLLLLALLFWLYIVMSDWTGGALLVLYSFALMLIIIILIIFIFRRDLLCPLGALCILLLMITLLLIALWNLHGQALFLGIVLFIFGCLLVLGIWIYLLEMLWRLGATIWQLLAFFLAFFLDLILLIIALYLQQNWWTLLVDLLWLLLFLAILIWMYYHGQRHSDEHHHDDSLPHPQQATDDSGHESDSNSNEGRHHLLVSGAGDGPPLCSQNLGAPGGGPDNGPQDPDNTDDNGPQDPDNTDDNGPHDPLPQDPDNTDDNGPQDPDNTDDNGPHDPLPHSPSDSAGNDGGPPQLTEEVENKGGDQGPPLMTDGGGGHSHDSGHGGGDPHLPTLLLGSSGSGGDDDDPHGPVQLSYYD
UniProt P06396: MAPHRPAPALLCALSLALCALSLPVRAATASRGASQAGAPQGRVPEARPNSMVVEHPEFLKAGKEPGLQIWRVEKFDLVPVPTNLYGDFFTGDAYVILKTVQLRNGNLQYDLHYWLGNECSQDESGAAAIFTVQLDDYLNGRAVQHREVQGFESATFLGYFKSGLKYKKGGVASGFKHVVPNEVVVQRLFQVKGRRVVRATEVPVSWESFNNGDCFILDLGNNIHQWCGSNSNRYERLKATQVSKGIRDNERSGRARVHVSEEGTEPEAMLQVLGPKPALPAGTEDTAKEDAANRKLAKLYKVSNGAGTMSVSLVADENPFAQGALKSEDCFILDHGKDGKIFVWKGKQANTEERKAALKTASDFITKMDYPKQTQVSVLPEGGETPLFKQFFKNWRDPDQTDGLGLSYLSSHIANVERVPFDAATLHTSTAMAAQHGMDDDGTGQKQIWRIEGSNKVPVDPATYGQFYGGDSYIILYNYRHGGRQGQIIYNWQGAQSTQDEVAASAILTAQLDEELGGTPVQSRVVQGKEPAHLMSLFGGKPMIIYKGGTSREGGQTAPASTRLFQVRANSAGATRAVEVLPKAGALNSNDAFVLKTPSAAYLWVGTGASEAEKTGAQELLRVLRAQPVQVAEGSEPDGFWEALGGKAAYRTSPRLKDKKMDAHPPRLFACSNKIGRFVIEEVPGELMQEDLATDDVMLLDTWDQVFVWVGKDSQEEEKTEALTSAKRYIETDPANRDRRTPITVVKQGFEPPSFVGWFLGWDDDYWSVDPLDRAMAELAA

No constants are given. Whether binding was seen depends on the method and setting. Binding seen in cells or lysates may run through a third protein. A result given as binding can be weak or reduced; the word gives no strength.

The test addresses Flag-tagged full-length Epstein-Barr virus latent membrane protein 1 (LMP1) (Epstein-Barr virus) (UniProt P03230). Description: co-IP; lysates of HEK293T cells transfected with Flag-LMP1 or Flag-LMP1ΔCT; anti-Flag IP (2 ug antibody, overnight, 4°C, protein A/G plus-Agarose), 4 washes with cold IP lysis buffer; anti-Flag and anti-gelsolin immunoblot. Background: In western blotting, separated proteins are transferred to a membrane and probed.

On to gelsolin (from UniProt P06396), for which the binding result is recorded as “binds”.
